# Source: the supplement of paper PMC12889115
# The list shows a part of the results. These are raw signals, not scaled to a control.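 Primary screen: polymyxin B was added at a level permeabilizing Salmonella outer membranes while sparing inner membranes. DMSO wells, both with and without polymyxin B, established maximum growth. Plate-to-plate variation meant each plate was ranked on its own, and the lowest-OD600 compounds were selected as hits.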
# System: Salmonella enterica serovar Typhimurium SL1344
# Assay: bacterial growth OD600 after 18 h with compound and polymyxin B; higher = more bacterial growth (less inhibition)
# Conditions: 50 µM, Mueller-Hinton broth
structure (smiles),measurement,setting,value
COc1ccc(/C=C/C(=O)N2CCc3c(cnc(C)c3CNC(=O)Cc3ccsc3)C2)cc1,bacterial growth OD600,polymyxin B 0.75 µg/mL,0.819
C/C=C(\C)CN1Cc2cc(OC)ccc2OC(CC)C1 (stereo unspecified),bacterial growth OD600,polymyxin B 0.75 µg/mL,0.849
CN(C)C(=O)c1ccc(N2CCC(NCCC3(c4ccccc4)CCOC(C)(C)C3)CC2)cc1 (stereo unspecified),bacterial growth OD600,polymyxin B 0.75 µg/mL,0.799
COCCN1C(=O)CC(CC(=O)N2CCN(c3nc(C)cnc3C)CC2)(c2ccccc2F)C1=O (stereo unspecified),bacterial growth OD600,polymyxin B 0.75 µg/mL,0.832
CCCc1ccc2oc(C(=O)N(Cc3nccn3C)C(C)C)c(C)c2c1,bacterial growth OD600,polymyxin B 1 µg/mL,0.527
CC(C)C(=O)N1CCCC(C(=O)Nc2cccc(-c3cc4ccccc4[nH]3)c2)C1 (stereo unspecified),bacterial growth OD600,polymyxin B 1 µg/mL,1.04
CC(=O)c1cc(CN2CCCC(CCC(=O)Nc3ccccc3F)C2)cs1 (stereo unspecified),bacterial growth OD600,polymyxin B 1 µg/mL,0.836
CN(C)c1ncccc1CNS(C)(=O)=O,bacterial growth OD600,polymyxin B 1 µg/mL,0.912
COCC(=O)Nc1cc(C(=O)NCC2OCCc3ccccc32)cc2ncn(CCc3ccccc3)c12 (stereo unspecified),bacterial growth OD600,polymyxin B 0.75 µg/mL,0.867
CCOc1ccc2nc(N3CCC(NCCc4nc(C)c5c(n4)CCC5)CC3)nc(C)c2c1,bacterial growth OD600,polymyxin B 0.75 µg/mL,0.787
COc1ccccc1CNC(=O)c1c(OC)cc(=O)n2c1CCN(Cc1cc(C)ccc1C)CC2,bacterial growth OD600,polymyxin B 0.75 µg/mL,0.759
COc1ccc2c(c1)OC(C)CN(C(=O)c1c(-c3ccccc3)noc1C)C2 (stereo unspecified),bacterial growth OD600,polymyxin B 0.75 µg/mL,0.773
C=CCOc1ccccc1CN1CCC(CC2CC2)(C(=O)OCC)CC1,bacterial growth OD600,polymyxin B 1 µg/mL,0.931
COC(=O)c1ccc(-c2nc(CN3CCCC3c3nonc3C)c(C)o2)cc1 (stereo unspecified),bacterial growth OD600,polymyxin B 1 µg/mL,0.806
COc1cccc(CCC2CCCN(C(=O)c3ccccn3)C2)c1 (stereo unspecified),bacterial growth OD600,polymyxin B 0.75 µg/mL,0.823
COCCn1cnc2cc(NC(=O)C3CCCCC3)cc(C(=O)NCc3cc(F)ccc3C)c21,bacterial growth OD600,polymyxin B 0.75 µg/mL,0.874
C/C=C(\C)CN1CCCC(C(=O)Nc2ccccc2-c2ccc(OC)cc2)C1 (stereo unspecified),bacterial growth OD600,polymyxin B 1 µg/mL,1.19
CC(C)OCCNC(=O)C1CC(Cc2ccc(F)cc2)=NO1 (stereo unspecified),bacterial growth OD600,polymyxin B 0.75 µg/mL,0.919
COc1ccccc1C1(CC(=O)N(Cc2c(C)nn(C)c2C)C(C)C)CC(=O)N(C2CCCC2)C1=O (stereo unspecified),bacterial growth OD600,polymyxin B 0.75 µg/mL,0.497
CN(CC1CCN(CCc2cccc(F)c2)CC1)C(=O)CCc1cnn(C)c1,bacterial growth OD600,polymyxin B 1 µg/mL,1.08
COC1CCCN(C(=O)CC2(c3cccc(C(F)(F)F)c3)CC(=O)N(C3CC3)C2=O)C1 (stereo unspecified),bacterial growth OD600,polymyxin B 0.75 µg/mL,0.852
COc1ccc(CN2CCN(Cc3ccc(F)c(F)c3)CC2CCO)cc1C (stereo unspecified),bacterial growth OD600,polymyxin B 1 µg/mL,0.952
CCOC(=O)C1(Cc2ccccc2F)CCCN(Cc2csc(C(C)=O)c2)C1 (stereo unspecified),bacterial growth OD600,polymyxin B 1 µg/mL,0.767
Cc1ccccc1Oc1ncccc1CNC(=O)CCc1cn[nH]c1,bacterial growth OD600,polymyxin B 1 µg/mL,1.04
COCc1noc(-c2ccc(NCCSc3nccn3C)nc2)n1,bacterial growth OD600,polymyxin B 1 µg/mL,0.973
CC(C)NC1CC(=O)N(Cc2cccc(F)c2)C1 (stereo unspecified),bacterial growth OD600,polymyxin B 1 µg/mL,0.965
Cc1cc(C)n2nc(C(=O)N3CCC(CO)(Cc4ccccc4Cl)CC3)cc2n1,bacterial growth OD600,polymyxin B 0.75 µg/mL,0.826
CCOC(=O)C1(Cc2cccc(Cl)c2)CCCN(C(=O)c2ccco2)C1 (stereo unspecified),bacterial growth OD600,polymyxin B 1 µg/mL,0.48
O=C(NCc1ccc(F)cc1)c1ccccc1OC1CCN(C(=O)c2cccnc2)CC1,bacterial growth OD600,polymyxin B 1 µg/mL,1.22
O=C(NC1CCCN(Cc2ccccc2F)C1)c1cnn(Cc2ccccc2)c1 (stereo unspecified),bacterial growth OD600,polymyxin B 1 µg/mL,0.97
Cc1cccc(CNC(=O)C2CC23CCN(C(=O)c2cccc(-n4cccn4)c2)CC3)n1 (stereo unspecified),bacterial growth OD600,polymyxin B 0.75 µg/mL,1.01

# In another format: two of the compounds above.
structure (smiles)	measurement	setting	value
COc1cccc(CCC2CCCN(C(=O)c3ccccn3)C2)c1 (stereo unspecified)	bacterial growth OD600	polymyxin B 0.75 µg/mL	0.823
O=C(NC1CCCN(Cc2ccccc2F)C1)c1cnn(Cc2ccccc2)c1 (stereo unspecified)	bacterial growth OD600	polymyxin B 1 µg/mL	0.97
